No constants are given. Whether binding was seen depends on the method and setting. Binding seen in cells or lysates may run through a third protein. Some results given as binding are weak or reduced against the parent protein; the word gives no strength. For some assays here: Where a sequence is shown, tags or fusion partners need not be part of it.

Protein sequences, listed by entry. Tags and fused reporters are not part of them.
UniProt Q04206: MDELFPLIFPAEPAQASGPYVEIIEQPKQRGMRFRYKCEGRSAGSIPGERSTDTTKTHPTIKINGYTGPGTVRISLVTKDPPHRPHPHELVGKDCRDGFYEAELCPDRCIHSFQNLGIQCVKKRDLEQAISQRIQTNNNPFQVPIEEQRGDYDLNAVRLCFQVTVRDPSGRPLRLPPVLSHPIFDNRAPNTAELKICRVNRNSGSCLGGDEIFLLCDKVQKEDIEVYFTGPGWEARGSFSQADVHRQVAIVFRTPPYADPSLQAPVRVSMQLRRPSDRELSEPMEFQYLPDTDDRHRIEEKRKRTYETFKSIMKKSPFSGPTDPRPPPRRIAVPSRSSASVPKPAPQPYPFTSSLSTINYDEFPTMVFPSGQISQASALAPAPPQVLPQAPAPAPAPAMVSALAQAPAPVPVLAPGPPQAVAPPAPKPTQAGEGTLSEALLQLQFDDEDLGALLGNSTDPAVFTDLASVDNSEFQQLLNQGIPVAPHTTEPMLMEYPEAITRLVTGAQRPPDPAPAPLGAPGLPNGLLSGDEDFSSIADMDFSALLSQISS

One assay concerns the target T1, BTG3 (UniProt Q14201).
T1 sequence: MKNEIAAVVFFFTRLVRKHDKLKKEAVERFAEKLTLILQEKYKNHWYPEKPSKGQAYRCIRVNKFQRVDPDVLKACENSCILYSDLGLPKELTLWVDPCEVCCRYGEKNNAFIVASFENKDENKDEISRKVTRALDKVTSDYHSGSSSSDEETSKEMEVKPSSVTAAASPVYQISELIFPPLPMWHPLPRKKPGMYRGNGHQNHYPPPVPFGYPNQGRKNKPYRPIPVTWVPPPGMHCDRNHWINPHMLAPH
Nature of the assay: co-IP; p65 and BTG3 overexpressed in 293T cells; lysates in TEGN buffer diluted with TEG buffer; anti-Flag (M2) or anti-HA antibody and protein A resin, 2 h at 4 °C.

In a further assay the target is T2, GST-BTG3 (UniProt Q14201).
T2 sequence: T1 sequence
Nature of the assay: pull-down; GST pulldown 'in vitro' with recombinant GST-BTG3 proteins; conditions not given.

In the case of p65 (from UniProt Q04206 1-551), the binding result with BTG3 is listed as “binds”.

As to “p65 (as used in the GST pulldown) (from UniProt Q04206 1-551)”, in the assay with GST-BTG3, the binding entry is “binds”.

The values are drawn from paper PMC11303697.
